Structures can show the parent of a compound that is named as a salt. The list shows a part of the results. Single values are uncertain here, since repeats match poorly.
Tested on: Brugia pahangi adult female
Experiment: motility inhibition on day 3 relative to DMSO vehicle; higher = more active
Settings: 10 µM; 3 days

| SMILES | motility inhibition on day 3 |
| --- | --- |
| CN1C[C@H](CNC(=O)OCc2ccccc2)C[C@@H]2c3cccc4c3c(cn4C)C[C@H]21 [metergoline] | 2.07% |
| Oc1ccc2c3c1O[C@H]1[C@@H](O)CC[C@@]4(O)[C@@H](C2)N(CC2CCC2)CC[C@]314 [nalbuphine hydrochloride] | 0.809% |
| CC(C)c1cccc(C(C)C)c1O [Propofol] | 0.969% |
| c1ccc2c(c1)OCC(C1=NCCN1)O2 (centres undefined) [idazoxan hydrochloride] | < 0% |
| CC1C=CC=CCCC=CC=CC=CC=CC(OC2OC(C)C(O)C(N)C2O)CC2OC(O)(CC(O)C(O)CCC(O)CC(O)CC(O)CC(=O)OC(C)C(C)C1O)CC(O)C2C(=O)O (centres undefined) [nystatin] | 25.1% |
| CC[C@@H](CO)NC(=O)[C@@H]1C=C2c3cccc4c3c(cn4C)C[C@H]2N(C)C1 [methysergide maleate] | 38.3% |
| COc1cc2c(c(OC)c1OC)-c1ccc(OC)c(=O)cc1[C@@H](NC(C)=O)CC2 [colchicine] | < 0% |
| C[C@]12CC[C@H](O)CC1=CC[C@@H]1[C@@H]2CC[C@]2(C)C(=O)CC[C@@H]12 [prasterone] | 4.47% |
| CC(=O)O[C@H]1C[C@@H]2CC[C@@H]3[C@H](CC[C@@]4(C)[C@H]3C[C@H]([N+]3(C)CCCCC3)[C@@H]4OC(C)=O)[C@@]2(C)C[C@@H]1[N+]1(C)CCCCC1 [pancuronium bromide] | < 0% |
| CN[C@@H](C)[C@H](O)c1ccccc1 [(-)-Ephedrine] | < 0% |
| C[C@]12CC[C@H]3[C@@H](CCC4=CC(=O)CC[C@@]43C)[C@@H]1CC[C@@H]2O [testosterone] | 18.1% |
| c1ccc2c(c1)Nc1ccccc1S2 [phenothiazine] | 82.1% |
| O=c1c2ccccc2[se]n1-c1ccccc1 [ebselen] | 6.53% |
| Cc1ccc(/N=C/N(C)/C=N/c2ccc(C)cc2C)c(C)c1 [amitraz] | < 0% |
| CC(C)c1cccc(C(C)C)c1OCOP(=O)(O)O [Sodium (2,6-diisopropylphenoxy)methyl Phosphate] | 30.8% |
| C[C@]12CCC(=O)C=C1C=C[C@@H]1[C@@H]2CC[C@@]2(C)[C@H]1CC[C@@]2(O)CCC(=O)O [canrenoic acid] | 22.9% |
| CC[C@@H](C(=O)[C@@H](C)[C@@H](O)[C@H](C)[C@@H]1O[C@@H]([C@@H](CC)C(=O)O)CC[C@@H]1C)[C@H]1O[C@]2(C=C[C@@H](O)[C@]3(CC[C@@](C)([C@H]4CC[C@](O)(CC)[C@H](C)O4)O3)O2)[C@H](C)C[C@@H]1C [salinomycin] | 99.7% |
| Cc1cccc(C)c1NC(=O)CN1CCCC1=O [nefiracetam] | 0.687% |
| S=C=NCc1ccccc1 [benzyl isothiocyanate] | 43.3% |
| COP(=O)(OC)OC=C(Cl)Cl [dichlorvos] | 56.8% |

Reprinted at random: two entries already listed, in no set order.

| SMILES | motility inhibition on day 3 |
| --- | --- |
| Oc1ccc2c3c1O[C@H]1[C@@H](O)CC[C@@]4(O)[C@@H](C2)N(CC2CCC2)CC[C@]314 [nalbuphine hydrochloride] | 0.809% |
| CC1C=CC=CCCC=CC=CC=CC=CC(OC2OC(C)C(O)C(N)C2O)CC2OC(O)(CC(O)C(O)CCC(O)CC(O)CC(O)CC(=O)OC(C)C(C)C1O)CC(O)C2C(=O)O (centres undefined) [nystatin] | 25.1% |

Next part

| SMILES | motility inhibition on day 3 |
| --- | --- |
| COP(=O)(OC)C(O)C(Cl)(Cl)Cl (centres undefined) [trichlorfon] | 4.98% |
| C=CCN1CC[C@]23c4c5ccc(O)c4O[C@H]2C(=O)CC[C@@]3(O)[C@H]1C5 [naloxone hydrochloride] | < 0% |
| O=c1n(Cl)c(=O)n(Cl)c(=O)n1Cl [symclosene] | 3.08% |
| CN1C[C@H](C(=O)N[C@]2(C)O[C@@]3(O)[C@@H]4CCCN4C(=O)[C@H](Cc4ccccc4)N3C2=O)C=C2c3cccc4[nH]cc(c34)C[C@H]21 [ergotamine tartrate] | 19.8% |
| [O-][n+]1ccccc1[S-].[O-][n+]1ccccc1[S-].[Zn+2] [pyrithione zinc] | 99.5% |
| O=[N+]([O-])C(Br)(CO)CO [bronopol] | 15.6% |
| CN1[C@@H]2C[C@@H](OC(=O)[C@H](CO)c3ccccc3)C[C@H]1[C@@H]1O[C@@H]12 [scopolamine hydrobromide] | 14.6% |
| CN[C@@H](C)[C@@H](O)c1ccccc1 [(+)-Pseudoephedrine] | < 0% |
| C=C/C=C\CC1=C(C)[C@@H](OC(=O)[C@@H]2[C@@H](/C=C(\C)C(=O)OC)C2(C)C)CC1=O.C=C/C=C\CC1=C(C)[C@@H](OC(=O)[C@@H]2[C@@H](C=C(C)C)C2(C)C)CC1=O [pyrethrins] | 23.3% |
| NCc1cccnc1 [picolamine] | 5.55% |
| O=C(O)CCCO [sodium oxybate] | 0.223% |
| CC(NC(C)(C)C)C(=O)c1cccc(Cl)c1 (centres undefined) [Bupropion hydrochloride] | 6.99% |
| CCOC(=O)CC(SP(=S)(OC)OC)C(=O)OCC (centres undefined) [malathion] | < 0% |
| CN1CC[C@]23c4c5ccc(O)c4O[C@H]2[C@@H](O)C=C[C@H]3[C@H]1C5 [Morphine sulfate salt pentahydrate] | 8.54% |
| CC(N)Cc1ccc(O)cc1 (centres undefined) [hydroxyamphetamine hydrobromide] | 32.9% |
| CN1CCN(C(=O)O[C@H]2c3nccnc3C(=O)N2c2ccc(Cl)cn2)CC1 [eszopiclone] | 9.66% |
| O=C1CC[C@@]2(O)[C@H]3Cc4ccc(O)c5c4[C@@]2(CCN3CC2CC2)[C@H]1O5 [naltrexone hydrochloride] | 7.21% |
| NC(=O)c1cc([N+](=O)[O-])cc([N+](=O)[O-])c1 [nitromide] | 43.1% |
| CN[C@@H]1[C@@H](O)[C@@H](O[C@@H]2[C@@H](O)[C@H](O[C@H]3O[C@H](CN)CC[C@H]3N)[C@@H](N)C[C@H]2N)OC[C@]1(C)O.CN[C@@H]1[C@@H](O)[C@@H](O[C@@H]2[C@@H](O)[C@H](O[C@H]3O[C@H]([C@@H](C)N)CC[C@H]3N)[C@@H](N)C[C@H]2N)OC[C@]1(C)O.CN[C@@H]1[C@@H](O)[C@@H](O[C@@H]2[C@@H](O)[C@H](O[C@H]3O[C@H]([C@@H](C)NC)CC[C@H]3N)[C@@H](N)C[C@H]2N)OC[C@]1(C)O [gentamicin sulfate] | 17.4% |

Reference: the supplement of paper PMC7830784
